Structures can show the parent of a compound that is named as a salt. This is one part of the list. This is a noisy data set.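 Yeast growth was measured as optical density at 600 nm. Two-hybrid strains grew without histidine, so growth depended on Pex3–Pex19 binding. A compound was trypanosome-selective if it reduced growth of the trypanosome-pair strain by over 65% and of the human-pair strain by under 65%.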
What was measured:
[1] = tested on: Saccharomyces cerevisiae HF7c pdr5Δ; test: general growth inhibition of yeast HF7c pdr5Δ in -Leu -Trp medium, relative to DMSO; higher = stronger general growth inhibition; details: 100 µM; 24 h
[2] = tested on: human PEX3-PEX19 interaction (yeast two-hybrid); test: growth inhibition of yeast two-hybrid strain reporting HsPex3-HsPex19 interaction, relative to DMSO; higher = stronger inhibition of human Pex3-Pex19 interaction / growth; details: 100 µM; 24 h; 3-aminotriazole 10 mM
[3] = tested on: T. brucei Pex3-Pex19 interaction (yeast two-hybrid); test: growth inhibition of yeast two-hybrid strain reporting TbPex3-TbPex19 interaction, relative to DMSO; higher = stronger inhibition of T. brucei Pex3-Pex19 interaction / growth; details: 100 µM; 24 h

Compound | general growth inhibition [1] [%] | growth inhibition [2] [%] | growth inhibition [3] [%]
Nc1nc2c(ncn2COCCO)c(=O)[nH]1 [Acyclovir] | 48.5 | 48.5 | 67.9
CN(C)c1ccc(/C=C2/C(=O)Nc3ccccc32)cc1 | 29.9 | 23.6 | 28.3
NC(=O)NO [Hydroxyurea] | 39.6 | 39 | 64.6
O=C(O)/C=C/c1cnc[nH]1 [4-Imidazoleacrylic acid] | 57.7 | 45.5 | 64.7
NC(N)=NC(N)=Nc1cccc(Cl)c1 [1-(m-Chlorophenyl)-biguanide hydrochloride] | 41.1 | 40 | 59.2
CC(C)NCC(O)c1ccc(NS(C)(=O)=O)cc1 (racemic) [(±)-Sotalol hydrochloride] | 56.6 | 50.2 | 59.7
C=CCc1ccccc1OCC(O)CNC(C)C (stereo not given) [Alprenolol hydrochloride] | -6.16 | -19 | -24.9
COCCOC(=O)C1=C(C)NC(C)=C(C(=O)OC/C=C/c2ccccc2)C1c1cccc([N+](=O)[O-])c1 (stereo not given) [Cilnidipine] | 26.3 | 17.9 | 34.5
O=c1[nH]c2cc(Cl)ccc2c(O)c1-c1cccc(Oc2ccccc2)c1 | 40.4 | 11.5 | 43
NC(=O)N1c2ccccc2C=Cc2ccccc21 [Carbamazepine] | 38.8 | 40.3 | 55.3
COc1ccccc1CNC1CCCNC1c1ccccc1 (stereo not given) | 51.3 | 50.5 | 62.6
CN(C)[C@@H]1C(=O)C(C(N)=O)=C(O)[C@@]2(O)C(=O)C3=C(O)c4c(O)ccc(Cl)c4[C@@H](O)[C@H]3C[C@@H]12 [Demeclocycline hydrochloride] | 23.9 | 31.5 | 47.8
NC[C@@H]1O[C@H](O[C@H]2[C@@H](O)[C@H](O[C@@H]3[C@@H](O)[C@H](N)C[C@H](N)[C@H]3O[C@H]3O[C@H](CO)[C@@H](O)[C@H](O)[C@H]3N)O[C@@H]2CO)[C@H](N)[C@@H](O)[C@@H]1O [Paromomycin sulfate] | 37.8 | 41 | 64.2
CCCCCCCCCCC/C=C\C(C)(C)/C=C\CCCC(=O)O [7,7-Dimethyl-(5Z,8Z)-eicosadienoic acid] | 36.7 | 35.7 | 64.1
CC(=O)[C@]1(O)Cc2c(O)c3c(c(O)c2[C@@H](O[C@H]2C[C@H](N)[C@H](O)[C@H](C)O2)C1)C(=O)c1ccccc1C3=O [Idarubicin] | 86.2 | 84 | 78.4
CCCCCN(CCCOC)C(=O)C(CCC(=O)O)NC(=O)c1ccc(Cl)c(Cl)c1 (stereo not given) [Loxiglumide] | 20.7 | 13.1 | 32.2
Cc1ccccc1/C=C/C1=NCCN1 [Metrazoline oxalate] | 50.9 | 45.4 | 67.4
CC1(C)CCC2=C(O1)c1ccccc1C(=O)C2=O [beta-Lapachone] | 67.6 | 72.1 | 69.7
NS(=O)(=O)C#Cc1ccccc1 [Pifithrin-mu] | 63.1 | 49.8 | 68
OC1(c2ccc(Cl)cc2)CCN(Cc2c[nH]c3ccccc23)CC1 | 35.6 | 34.7 | 66.1
CCN1CCC[C@H]1CNC(=O)c1c(O)c(Cl)cc(Cl)c1OC [S(+)-Raclopride L-tartrate] | 45.2 | 47.4 | 66.4
CCCC1O[C@@H]2C[C@H]3[C@@H]4CCC5=CC(=O)C=C[C@]5(C)[C@H]4[C@@H](O)C[C@]3(C)[C@]2(C(=O)CO)O1 (stereo not given in full) [Budesonide] | 39.3 | 36.9 | 51.2
CN(C)CCN(Cc1cccs1)c1ccccn1 [Methapyrilene hydrochloride] | 32.4 | 39.6 | 55.9
CN(C)CCCN1c2ccccc2Sc2ccc(C(F)(F)F)cc21 [Triflupromazine hydrochloride] | 44.6 | 32.8 | 56.4
CC(N)=O [Acetamide] | 13.7 | 11.7 | 36.7
CC(C)NCC(O)c1ccc(O)c(O)c1 (stereo not drawn) [R(-)-Isoproterenol (+)-bitartrate] | 8.71 | 8.42 | 32.4
CC(C)(C)NCC(O)c1cc(O)cc(O)c1 (stereo not given) [Terbutaline hemisulfate] | 45.4 | 33.8 | 62
c1ccc(C(NCc2cccnc2)(c2ccccc2)c2ccccc2)cc1 | 65 | 62.4 | 52
O=C(O)CCc1nc(-c2ccccc2)c(-c2ccccc2)o1 [Oxaprozin] | 41.1 | 35.3 | 42.2
CN(C)c1cc2c(Nc3ccc4c(cnn4Cc4ccccc4)c3)ncnc2cn1 | 23 | 9.93 | 53.5

Fetched by structure from the list above:
Compound | general growth inhibition [1] [%] | growth inhibition [2] [%] | growth inhibition [3] [%]
CN(C)[C@@H]1C(=O)C(C(N)=O)=C(O)[C@@]2(O)C(=O)C3=C(O)c4c(O)ccc(Cl)c4[C@@H](O)[C@H]3C[C@@H]12 [Demeclocycline hydrochloride] | 23.9 | 31.5 | 47.8
CN(C)c1cc2c(Nc3ccc4c(cnn4Cc4ccccc4)c3)ncnc2cn1 | 23 | 9.93 | 53.5
